The experiment has as its system P388 leukemia ip, CD2F1 mice, survival T/C. As to the kind of experiment: NCI In Vivo Anticancer Drug Screen. Data for tumor model P388 Leukemia (intraperitoneal) in CD2F1 (CDF1) mice. Conditions: T/C endpoint: median survival time, higher T/C = longer survival.
[1] abbreviates: dose: 200.0 mg/kg/injection, schedule: Q01DX005 (ip), vehicle: Klucel (hydroxypropylcellulose) (HPC).
Where [2] appears, read: dose: 240.0 mg/kg/injection, schedule: Q01DX005 (ip), vehicle: Klucel (hydroxypropylcellulose) (HPC).
The mark [3] stands for this setting: dose: 200.0 mg/kg/injection, schedule: Q01DX009 (ip), vehicle: saline.
The mark [4] stands for this setting: dose: 400.0 mg/kg/injection, schedule: Q04DX003 (ip), vehicle: Klucel (hydroxypropylcellulose) (HPC).
Setting [5] is: dose: 60.0 mg/kg/injection, schedule: Q01DX005 (ip), vehicle: saline with Tween-80.
Setting [6] is: dose: 120.0 mg/kg/injection, schedule: Q01DX005 (ip), vehicle: saline with Tween-80.
The mark [7] stands for this setting: dose: 240.0 mg/kg/injection, schedule: Q01DX005 (ip), vehicle: saline with Tween-80.
[8] abbreviates: dose: 50.0 mg/kg/injection, schedule: Q01DX009 (ip), vehicle: Klucel (hydroxypropylcellulose) (HPC).
The mark [9] stands for this setting: dose: 50.0 mg/kg/injection, schedule: Q01DX009 (ip), vehicle: saline with Tween-80.
Where [10] appears, read: dose: 100.0 mg/kg/injection, schedule: Q01DX009 (ip), vehicle: saline with Tween-80.
Setting [11] is: dose: 200.0 mg/kg/injection, schedule: Q01DX009 (ip), vehicle: saline with Tween-80.

The text below walks through data of PubChem BioAssay AID330 (DTP/NCI, 2004).

The list does not hold the whole screen: it is rich in T/C values a quarter to a half above the control, in often repeated tests (any T/C) and in doses without a T/C. Other doses and runs of a compound stand elsewhere. T/C: endpoint of the treated group in % of that of the vehicle group. Some doses have a count of surviving animals in place of a T/C: the source files T/C as zero there, which appears to mark a toxic dose or a test without result, not a measured value. Some survivor counts are full or nearly so, which does not show that the dose was tolerated: the source hardly ever lists a survival T/C far under the control, and the zero likely stands for such cases as well. Survivors were counted at the toxicity check, usually on the fifth day, unless a day is given; later deaths do not show. Schedules are NCI's codes, taken here to give the interval after Q, in days (D) or hours (H), and the number of doses after X. Some doses were run more than once; their values stand side by side, smallest first. Where survival is the endpoint, the PubChem record calls one and a half times the control and up active, and a quarter to a half above the control has no call in these data; cut-offs in other NCI protocols can differ. Some T/C values carry the count of animals alive at the toxicity check (mostly the fifth day); where none is given, no animal had died by that day.

With `CN(C)CCOc1cnc2ccc(Cl)cc2n1`, the survivor count under setting [1] is listed as 5 of 5.

For `O=C(N=Nc1c(Cl)c(O)c2ccccc2c1O)C(=O)Nc1cccc(C(F)(F)F)c1`, the survivor count runs as follows: (dose: 100.0 mg/kg/injection, schedule: Q01DX005 (ip), vehicle: Klucel (hydroxypropylcellulose) (HPC)) 4 of 6; under setting [1], 0 of 6.

Turning to `CCCCS(=O)(=O)C(C)(Cl)C(=O)OCC` (centres undefined), the survivor count runs as follows: (dose: 200.0 mg/kg/injection, schedule: Q01DX001 (ip), vehicle: saline with Tween-80) 0 of 6; (dose: 400.0 mg/kg/injection, schedule: Q01DX001 (ip), vehicle: saline with Tween-80) 0 of 6.

As to `NC(=O)Nc1ccc(Cl)cc1[N+](=O)[O-]`, the survivor count was 0 of 6 (dose: 150.0 mg/kg/injection, schedule: Q01DX009 (ip), vehicle: Klucel (hydroxypropylcellulose) (HPC)) and 0 of 6 (dose: 300.0 mg/kg/injection, schedule: Q01DX009 (ip), vehicle: Klucel (hydroxypropylcellulose) (HPC)).

Regarding `Cc1cc2ccccc2c2c(C)c3cccc[n+]3cc12`, the survivor count is, setting by setting: (dose: 50.0 mg/kg/injection, schedule: Q04DX003 (ip), vehicle: other) 0 of 3; (dose: 100.0 mg/kg/injection, schedule: Q04DX003 (ip), vehicle: other) 0 of 3.

As to `CSc1n[nH]c(-c2cccs2)n1`, under setting [2], the survivor count was 1 of 6.

As for `O=C(Nc1ccc(Cl)cc1)NC1OC(=O)C(Cl)=C1Cl` (centres undefined), the survivor count under setting [3] is on record as 2 of 6.

On to `O=P(c1ccccc1)(c1ccccc1)c1ccccc1.O=P(c1ccccc1)(c1ccccc1)c1ccccc1.O=S(=O)(O)O.[Fe]`, for which the survivor count under setting [4] is listed as 1 of 6.

As for `CC(O)CCC(=O)c1ccoc1` (centres undefined), the survivor count runs as follows: (dose: 30.0 mg/kg/injection, schedule: Q01DX005 (ip), vehicle: saline) 3 of 6; (dose: 60.0 mg/kg/injection, schedule: Q01DX005 (ip), vehicle: saline) 0 of 6; (dose: 120.0 mg/kg/injection, schedule: Q01DX005 (ip), vehicle: saline) 0 of 6; (dose: 240.0 mg/kg/injection, schedule: Q01DX005 (ip), vehicle: saline) 0 of 6.

With `CN(C)CCOCN1COCC1(C)C`, the T/C is, setting by setting: (dose: 50.0 mg/kg/injection, schedule: Q01DX009 (ip), vehicle: saline) 137 % of control; (dose: 100.0 mg/kg/injection, schedule: Q01DX009 (ip), vehicle: saline) 129 % of control [4 of 6 alive]; (dose: 150.0 mg/kg/injection, schedule: Q01DX009 (ip), vehicle: saline) 132 % of control.

In the case of `O=C1NC(=O)c2c1c1cnn(-c3ccccc3)c1n1cccc21`, the survivor count is, setting by setting: under setting [5], 6 of 6; under setting [6], 6 of 6; under setting [7], 6 of 6.

`C[Si](C)(C)O/C=C1/CCOC1=O`: under setting [3], the T/C was 125 % of control.

As for `Cn1c(C2(C)C(=O)NC(=O)c3cnccc32)cc2ccccc21` (centres undefined), the survivor count (dose: 400.0 mg/kg/injection, schedule: Q04DX002 (ip), vehicle: Klucel (hydroxypropylcellulose) (HPC)) is given as 3 of 6.

As for `O=c1oc2nc(-c3ccccc3)[nH]c(=O)c2c2c1CCCC2`, the survivor count is, setting by setting: (dose: 60.0 mg/kg/injection, schedule: Q01DX005 (ip), vehicle: Klucel (hydroxypropylcellulose) (HPC)) 6 of 6; (dose: 120.0 mg/kg/injection, schedule: Q01DX005 (ip), vehicle: Klucel (hydroxypropylcellulose) (HPC)) 5 of 6; under setting [2], 0 of 6.

For `CSC(=S)Nc1nc2ccc(Cl)cc2s1`, the survivor count under setting [8] is on record as 6 of 6; the survivor count (dose: 100.0 mg/kg/injection, schedule: Q01DX009 (ip), vehicle: Klucel (hydroxypropylcellulose) (HPC)) is reported as 6 of 6; the survivor count (dose: 200.0 mg/kg/injection, schedule: Q01DX009 (ip), vehicle: Klucel (hydroxypropylcellulose) (HPC)) is 4 of 6.

Take `CS/C(=N/N=C(\C)c1ccccn1)[Se][Se]/C(=N/N=C(\C)c1ccccn1)SC`: the survivor count reads like this: (dose: 25.0 mg/kg/injection, schedule: Q01DX009 (ip), vehicle: saline with Tween-80) 6 of 6; under setting [9], 6 of 6; under setting [10], 3 of 6 and 6 of 6.

With `CC(=O)Oc1c(C)c(OC(C)=O)c2[nH]c(Cl)c(C=O)c2c1OC(C)=O`, the survivor count (dose: 400.0 mg/kg/injection, schedule: Q01DX001 (ip), vehicle: Klucel (hydroxypropylcellulose) (HPC)) is on record as 3 of 6.

As for `CC(=O)OCC1(C)NC(=O)c2ccccc2O1` (centres undefined), the T/C reads like this: under setting [10], 135 % of control; under setting [11], 126 and 127 % of control.

For the compound `CCC[CH2][Sn]([Cl])([CH2]CCC)[S]C(=S)NCCNC(=S)[S][Sn]([Cl])([CH2]CCC)[CH2]CCC`, the survivor count runs as follows: (dose: 6.25 mg/kg/injection, schedule: Q01DX009 (ip), vehicle: Klucel (hydroxypropylcellulose) (HPC)) 6 of 6; (dose: 12.5 mg/kg/injection, schedule: Q01DX009 (ip), vehicle: Klucel (hydroxypropylcellulose) (HPC)) 0 of 6; (dose: 25.0 mg/kg/injection, schedule: Q01DX009 (ip), vehicle: Klucel (hydroxypropylcellulose) (HPC)) 0 of 6; under setting [8], 0 of 6.

As for `O=C(O)Cc1ccc(N2N=C(c3ccccc3)CC2=O)cc1`, the survivor count under setting [7] was 6 of 6.

On to `N#CO`, for which the T/C under setting [9] is 136 % of control. Under setting [11], the survivor count is 6 of 6.

Turning to `CCN(CC)CCSSCCN(CC)CC.[Cl][Mn][Cl]`, the survivor count under setting [1] was 0 of 6.

With `CCCCCCCCCCn1cc[nH]c1=S`, the survivor count under setting [1] is on record as 3 of 6.

For `CCC(C)Sc1nc2ccc(NC(=O)/C=C/C(=O)O)cc2s1` (centres undefined), the survivor count under setting [4] is given as 0 of 6.

With `CCCC#CC#N`, the T/C (dose: 25.0 mg/kg/injection, schedule: Q01DX009 (ip), vehicle: suspension in saline) is 126 % of control; the T/C (dose: 50.0 mg/kg/injection, schedule: Q01DX009 (ip), vehicle: suspension in saline) is 142 % of control; the T/C (dose: 100.0 mg/kg/injection, schedule: Q01DX009 (ip), vehicle: olive oil, sesame oil, peanut oil) is 135 % of control; the T/C (dose: 100.0 mg/kg/injection, schedule: Q01DX009 (ip), vehicle: suspension in saline) is 135 % of control. The survivor count was 1 of 6 (dose: 200.0 mg/kg/injection, schedule: Q01DX009 (ip), vehicle: olive oil, sesame oil, peanut oil) and 3 of 6 (dose: 200.0 mg/kg/injection, schedule: Q01DX009 (ip), vehicle: suspension in saline).

Take `[Cl][Sn]([CH2][CH2][Sn]([Cl])([c]1ccccc1)[c]1ccccc1)([c]1ccccc1)[c]1ccccc1`: the survivor count was 0 of 6 (dose: 3.75 mg/kg/injection, schedule: Q01DX005 (ip), vehicle: saline with Tween-80); 0 of 6 (dose: 7.5 mg/kg/injection, schedule: Q01DX005 (ip), vehicle: saline with Tween-80); 0 of 6 (dose: 15.0 mg/kg/injection, schedule: Q01DX005 (ip), vehicle: saline with Tween-80); 0 of 6 under setting [5]; 0 of 6 under setting [6]; 0 of 6 under setting [7].

Consider `CC1=Nc2ccc([N+](=O)[O-])cc2N=C(C)C1`, for which, under “dose: 400.0 mg/kg/injection, schedule: Q01DX009 (ip), vehicle: saline with Tween-80”, the survivor count is 5 of 6.
